# Reference: article PMC7058931, “DNA topoisomerase IIIβ promotes cyst generation by inducing cyst wall protein gene expression in Giardia lamblia”
# Target: T1, TOP3β (DNA topoisomerase IIIβ) (Giardia lamblia WB) (UniProt A8B577)
# T1 sequence (looked up): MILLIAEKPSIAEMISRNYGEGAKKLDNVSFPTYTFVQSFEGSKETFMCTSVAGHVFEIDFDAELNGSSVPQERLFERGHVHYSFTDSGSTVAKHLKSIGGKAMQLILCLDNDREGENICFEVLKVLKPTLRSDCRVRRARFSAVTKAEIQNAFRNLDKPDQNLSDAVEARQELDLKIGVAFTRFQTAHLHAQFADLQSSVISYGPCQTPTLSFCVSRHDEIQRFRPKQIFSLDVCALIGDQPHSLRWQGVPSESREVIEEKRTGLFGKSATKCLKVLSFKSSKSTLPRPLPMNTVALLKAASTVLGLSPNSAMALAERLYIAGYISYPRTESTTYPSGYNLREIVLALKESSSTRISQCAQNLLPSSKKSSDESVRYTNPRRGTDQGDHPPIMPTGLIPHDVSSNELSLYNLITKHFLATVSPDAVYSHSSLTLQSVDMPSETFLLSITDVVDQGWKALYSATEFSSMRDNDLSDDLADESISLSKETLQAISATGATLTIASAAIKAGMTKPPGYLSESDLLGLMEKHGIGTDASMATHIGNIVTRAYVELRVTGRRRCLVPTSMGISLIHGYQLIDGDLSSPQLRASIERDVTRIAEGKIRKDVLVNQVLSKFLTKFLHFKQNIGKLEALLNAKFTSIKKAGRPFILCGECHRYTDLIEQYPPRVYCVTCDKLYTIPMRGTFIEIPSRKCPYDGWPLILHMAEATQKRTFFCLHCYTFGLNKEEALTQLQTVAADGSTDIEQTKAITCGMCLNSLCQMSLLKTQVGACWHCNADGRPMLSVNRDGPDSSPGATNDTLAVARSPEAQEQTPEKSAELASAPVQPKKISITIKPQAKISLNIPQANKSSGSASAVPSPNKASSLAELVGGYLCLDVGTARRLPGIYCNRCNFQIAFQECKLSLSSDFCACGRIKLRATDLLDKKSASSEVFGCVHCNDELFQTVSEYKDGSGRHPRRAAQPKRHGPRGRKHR
# Assay: EMSA
# Conditions: EMSA: 0.02 pmol 32P probe, 5 ng protein, 20 µl, 0.5 µg poly(dI-dC), 15 min at room temperature, 6% acrylamide gel; recombinant protein; residues 1-973; protein details: C-terminal V5 and His; label: 5'-32P
sequence,measurement,value
AAAAAAAAAAAAAAAAAAAAAAA (double strand) [poly A],binding result,binds more weakly

# Weaker means in comparison with the reference protein, sequence or condition of that experiment. Tags and fusion partners may be left off the protein sequences shown.
